Results taken from patent publication US20200340031A1.
Numbering of substitutions follows the chain as printed. These are yes or no findings as the source states them, for the method shown. Some entries that bind do so weakly or less than the wild type.

Amino acid sequences for entries named in this document (tags omitted). A change or cut given only in a name is not applied to a line headed by its entry.
UniProt Q5VYX0: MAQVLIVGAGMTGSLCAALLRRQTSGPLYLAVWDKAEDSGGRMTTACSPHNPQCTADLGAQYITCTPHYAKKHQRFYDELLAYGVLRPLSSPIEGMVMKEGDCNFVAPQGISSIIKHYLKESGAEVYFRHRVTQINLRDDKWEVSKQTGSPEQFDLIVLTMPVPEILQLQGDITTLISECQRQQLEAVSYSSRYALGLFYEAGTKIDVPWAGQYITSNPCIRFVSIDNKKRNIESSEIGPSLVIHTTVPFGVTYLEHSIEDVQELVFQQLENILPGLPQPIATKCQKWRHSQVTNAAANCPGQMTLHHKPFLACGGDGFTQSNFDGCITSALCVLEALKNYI

Tests used:
[1] = target: Recombinant human renalase-1 (RV11), bacterially expressed (human) (UniProt Q5VYX0); test: sandwich ELISA, capture antibody; detection with biotinylated Ren 1F 26-1
[2] = target: Recombinant human renalase-1 (RV11), bacterially expressed (human) (UniProt Q5VYX0); test: Immunoprecipitation of RV11 with antibody on Actigel beads, Western blot with Ren1D 28-4
[3] = target: Recombinant human renalase-1 (RV11), bacterially expressed (human) (UniProt Q5VYX0); test: Western blot of recombinant protein
[4] = target: Recombinant human renalase-1 (RV11), bacterially expressed (human) (UniProt Q5VYX0); test: Sandwich ELISA, Ren 1D 28-4 as capture, biotinylated Ren 1F 26-1 as detection, RV11 titrated
[5] = target: Recombinant human renalase-1 (RV11), bacterially expressed (human) (UniProt Q5VYX0); test: Western blot
[6] = target: Recombinant human renalase-1 (RV11), bacterially expressed (human) (UniProt Q5VYX0); test: immunoprecipitation with Actigel-coupled antibody, Western blot read-out
[7] = target: Recombinant human renalase-1 (RV11), bacterially expressed (human) (UniProt Q5VYX0); test: sandwich ELISA, biotinylated detection antibody at 4 µg/mL; capture with Ren 1D 28-4
[8] = target: Recombinant human renalase-1 (RV11), bacterially expressed (human) (UniProt Q5VYX0); test: Sandwich ELISA, polyclonal #3009 as capture, biotinylated 1F 26-1 as detection; axis printed as RV11 in serum
[9] = target: Recombinant human renalase-1 (RV11), bacterially expressed (human) (UniProt Q5VYX0); test: standard curve with acid-pretreated recombinant renalase in the sandwich ELISA with m42-RNLS capture

Measured: binding

B1: anti-1D epitope monoclonal antibody 1D-28-4 (antibody, V domains shown)
VH: QSVEESGGRLVTPGTPLTLTCTVSGFSLSSFAVGWVRQAPGKGLEYIGIISSVGITRYASWAAGRFTISKTSTTVDLKITSPTTEDTATYFCARYGYSGDVNRLDLWGQGTLVTVSS
VL: AQVLTQTASPVSAAVGGTVTINCQASQSVYDNNNLAWYQQKPGQPPKQLIYGASTLASGVSSRFKGSGSGTQFTLTISGVQCDDAATYYCLGEFSCSSADCFAFGGGTEVVVKG
not listed: [7] | [8] | [9]
binds: all other assays above

B2: anti-1D epitope monoclonal antibody 1D-37-10 (antibody, V domains shown)
VH: QSVEESGGRLVTPGGSLTLTCTVSGFSLSDYAIIWVRQAPGKGLEYIAIIGSSGDTFYATWAKGRFTISKTSTTVDLKMTSLTAADTATYFCAPRYAGTTDYHDAFDPWGPGTLVTVSS
VL: EVVMTQTPASMEAPMGGTVTIKCQASQNIYNYLSWYQQKPGQPPKLLVYKASTLTSGVPSRFKGSGSGTQFTLTISDLECADAATYYCQINYSIYNHYNIIFGGGTEVVVKG
binds: [2] | [3] | [5] | [6]

B3: anti-1F epitope monoclonal antibody 1F-26-1 (antibody, V domains shown)
VH: QSVKESEGGLFKPTDTLTLTCTVSGFSLSSYGVTWVRQAPGNGLEWIGLIGDRGTTFYASWAKSRSTITRNTNLNTVTLKMTRLTAADTATYFCARGSGYGARIWGPGTLVTVSS
VL: AQVLTQTPSPVSAAVGGTVTINCQSSQSVYKNNYLAWYQQKPGQPPKLLIYETSKLASGVPPRFSGSGSGTQFTLTISSVQCDDAATYYCQGGYSGVDFMAFGGGTEVVVKG
not listed: [1] | [9]
binds: all other assays above

B4: anti-1F epitope monoclonal antibody 1F-42-7 (antibody, V domains shown)
VH: B3 VH with S29T, S30T, F57Y, A62V, K63N, S64G, S114A
VL: B3 VL with V11M, V15L, S28T, K31N, A36S, A57S
binds: [9] | [2] | [5] | [6]
